Test system: bronchoconstriction induced by histamine
Assay: Histamine-induced bronchoconstriction in conscious guinea-pigs, whole body plethysmography (sGaw)
Assay type: in vivo, guinea-pig

COc1ccc(CC(C)NCC(O)c2ccc(O)c(NC=O)c2)cc1 (stereo not shown) [Formoterol, formoterol]
Post-treatment (% sGaw) (FIG. 4A, formoterol 0.3 μg/ml, 90 minutes before histamine): −70.0 % sGaw
Post-treatment (% sGaw) (FIG. 4A, formoterol 1 μg/ml, 90 minutes before histamine): −75.1 % sGaw
Post-treatment (% sGaw) (FIG. 4A, formoterol 3 μg/ml, 90 minutes before histamine): −29.2 % sGaw
Post-treatment (% sGaw) (FIG. 4B, formoterol 1 μg/ml): −75.1 % sGaw

From patent US20090087425A1, “Combination of nitroderivatized steroid and bronchodilator for treating respiratory disease” (Topigen Pharmaceuticals Inc., priority 2007, published 2009)
